According to PubChem BioAssay AID540276 (National Center for Advancing Translational Sciences (NCATS), 2011):
Among all 300,000 compounds or so, about 5,400 (1.8%) were called active. This list was built around the results that the source calls inconclusive (neither active nor inactive); the mix of calls is not that of the screen. Calls follow the shape of the full dose curve; tested in HEK293 cells. Potencies beside an inconclusive call are fits to weak or partial responses and may not hold up.

Assay: qHTS for inhibitors of binding or entry into cells for Marburg Virus
Details: Marburg virus pseudotyped entry inhibition, cell reporter; series mostly up to 37.8 µM
Potency is read from the fitted curve at half-maximal effect.

| Structure (SMILES) | Potency |
| --- | --- |
| O=C(CNC(=O)c1cc2ccccc2o1)NCc1cccs1 | inconclusive: 35.5 µM [activator, single point] |
| COc1cc(NC(=O)c2ccccc2Cl)c(OC)cc1NC(=O)CN1CCCCC1 | inactive |
| O=C(O)C1CCNCC1 | inconclusive: 0.224 µM [inhibitor, full curve, poor fit] |
| COCCNC(=O)/C(C#N)=C/c1cc(C)n(-c2ccc(C)cc2)c1C | inconclusive: 8.91 µM [inhibitor, partial curve, poor fit] |
| CCOC1OC(=O)C(Cl)=C1Nc1ccccc1C (stereo not drawn) | inconclusive: 0.794 µM [inhibitor, partial curve, poor fit] |
| CSc1cccc(NC(=O)CN(C)S(=O)(=O)c2ccc(F)cc2)c1 | inconclusive: 35.5 µM [activator, partial curve, poor fit] |
| O=c1cc(CNCCCO)c2ccccc2[nH]1 | inconclusive: 1.12 µM [activator, partial curve] |
| CCN(CC)C(=O)c1sc2nc(-c3cccs3)cc(-c3cccs3)c2c1N | inactive |
| CN(C)/N=C/C=C1\CCC/C(=C\c2ccc(F)c(F)c2)C1=O | inconclusive: 35.5 µM [inhibitor, partial curve, poor fit] |
| COc1cccc(CNC(=O)C2CCN(S(=O)(=O)N3CCCC3)CC2)c1 | inactive |
| Cc1nc(-c2ccc(NC(=O)c3ccccc3Br)cc2)cs1 | inconclusive: 1.84 µM [activator, partial curve] |
| Cc1ccc(C)c(S(=O)(=O)N2CCCOC2CNC(=O)C(=O)NCCc2ccco2)c1 (stereo not drawn) | inactive |
| CCOc1ccc(N=Nc2c(N)[nH][nH]c2=O)cc1 | inactive |
| CN1C/C(=C/c2ccsc2)C(=O)/C(=C/c2ccsc2)C1 | active: 5.01 µM |
| COc1ccc(S(=O)(=O)N2CCCC(C(=O)O)C2)cc1Cl (stereo not drawn) | inconclusive: 10 µM [activator, partial curve, poor fit] |
| O=C(Nc1c(-c2ccccc2)nc2sccn12)c1ccccc1 | inactive |
| N#Cc1ccccc1OCC(=O)N1CCN(C(=O)c2ccco2)CC1 | inconclusive: 2 µM [activator, partial curve, poor fit] |
| CC(C)Oc1ccc(-c2cc(=O)[nH]c(=O)[nH]2)cc1 | inconclusive: 2.51 µM [activator, partial curve, poor fit] |
| COC(=O)c1ccc(CNC(=O)c2sccc2-c2ccccc2)cc1 | inconclusive: 7.94 µM [inhibitor, partial curve] |
| Cc1ccsc1/C=N/Nc1ccc(F)cc1F | inconclusive: 15.8 µM [activator, single point] |
| CN(c1ccccc1)S(=O)(=O)c1cccc(NC(=O)c2ccc3ncsc3c2)c1 | inconclusive: 35.5 µM [inhibitor, single point] |
| CC(=O)Nc1ccc(Nc2nc3ccccc3nc2NS(=O)(=O)c2ccc(Cl)c([N+](=O)[O-])c2)cc1 | inactive |
| Cc1cccc(NC(=O)CSCC(=O)NNC(=O)c2ccoc2C)c1 | inconclusive: 35.5 µM [activator, single point] |
| Cc1ccnc(NC(=O)c2ccccc2NC(=O)c2ccccc2)c1 | inactive |

| Structure (SMILES) | Potency |
| --- | --- |
| NC(=NC1CCCCC1)c1ccc(Cl)cc1 | inconclusive: 10 µM [inhibitor, partial curve, poor fit] |
| CCOc1ccccc1NC(=O)C(Cc1ccccc1)NS(=O)(=O)c1ccc(Br)s1 (stereo not drawn) | inconclusive: 25.1 µM [inhibitor, single point] |
| O=C(COc1ccccc1C(=O)NCc1ccncc1)Nc1ccc(Br)cc1 | inconclusive: 3.55 µM [inhibitor, full curve] |
| CCOc1ccc(N(CC(=O)N2CCN(c3ccccc3OC)CC2)S(=O)(=O)c2ccc(F)cc2)cc1 | inconclusive: 0.355 µM [inhibitor, full curve, poor fit] |
| CCc1nc2sccc2c(=O)n1N | inactive |
| O=C(Cc1ccccc1)N/N=C/c1ccc(OCC(=O)Nc2ccccc2)cc1 | inactive |
| CCN1CCN(c2ccc(NC(=O)c3ccc(F)cc3)cc2Cl)CC1 | inconclusive: 5.62 µM [inhibitor, single point] |
| CC(OC(=O)c1cc2c(s1)CCCCC2)C(=O)NC(N)=O (stereo not drawn) | inactive |
| Cc1ccc(Nc2c([N+](=O)[O-])c(=O)oc3ccccc23)cc1 | inconclusive: 35.5 µM [inhibitor, single point] |
| Cc1ccc(OCC(=O)c2cc(C)n(C3CC3)c2C)c([N+](=O)[O-])n1 | inactive |
| C#CCn1cc(/C=N/Nc2nc3ccccc3[nH]2)c2ccccc21 | inconclusive: 18.4 µM [inhibitor, single point] |
| O=C(NC1CCCC1)c1ccc(CSc2nc3ccncc3n2Cc2ccccc2F)cc1 | inactive |
| COC1=C[C@H](C(=O)NCCNC(C)=O)[C@@]2(C)Cc3ccccc3[C@@H]2CC1=O | inactive |
| CC(=O)Nc1nonc1NC(=O)CSc1nc2ccccc2o1 | inactive |
| Clc1ccc(Oc2nc3c(Cl)cccc3s2)cc1Cl | inconclusive: 5.62 µM [activator, single point] |
| Cc1ccccc1[C@@H](OCCN(C)C)c1ccccc1 | inactive |
| C=C(C)CN(CC)C(=O)CSc1ccc(S(=O)(=O)N2CCN(C)CC2)cn1 | inconclusive: 3.55 µM [activator, partial curve] |
| Cc1ccc(-c2noc(CSc3nc(N)cc(N)n3)n2)cc1 | inactive |
| c1ccc(OCCSc2nc3ccccc3o2)cc1 | inactive |
| O=C(COc1ccccc1Cl)NCC(c1cccs1)N1CCOCC1 (stereo not drawn) | inactive |
| O=C1c2ccccc2NC(c2cccs2)N1NS(=O)(=O)c1ccccc1 (stereo not drawn) | inconclusive: 1.78 µM [inhibitor, full curve] |
| COc1ccc(CCN(C)CC(O)COC(c2ccc(F)cc2)c2ccc(F)cc2)cc1OC (stereo not drawn) | active: 5.62 µM |
| Cc1ccc(C(=O)Nc2scc(-c3ccccc3)c2C(=O)O)o1 | inactive |
| CC(=O)NC(Cc1ccc(N(CCCl)CCCl)cc1)C(=O)NCC(=O)NCC(=O)O (stereo not drawn) | inconclusive: 1.41 µM [inhibitor, partial curve, poor fit] |
